Test results published in patent US20040014696A1, “Specificity in treatment of diseases” (priority 2003, published 2004).

Experiment: Liver radioactivity estimated from portal vs systemic plasma in portal vein-cannulated monkeys
Type: in vivo

N=C(N)c1ncn([C@@H]2O[C@H](CO)[C@@H](O)[C@H]2O)n1 [modified Ribavirin, 1-beta-D-ribofuranosyl-1,2,4-triazole-3-carboxamidine]
Therapeutic ratio relative to Ribavirin (from RBC radioactivity and liver concentration): about twelve times that of Ribavirin
Share of the Ribavirin dosage required to achieve the same liver concentration of Ribavirin (oral): about 66%
